This assay deals with T1, NRF2 (human (endogenous in LN229 and U251)) (UniProt Q16236).
T1 sequence: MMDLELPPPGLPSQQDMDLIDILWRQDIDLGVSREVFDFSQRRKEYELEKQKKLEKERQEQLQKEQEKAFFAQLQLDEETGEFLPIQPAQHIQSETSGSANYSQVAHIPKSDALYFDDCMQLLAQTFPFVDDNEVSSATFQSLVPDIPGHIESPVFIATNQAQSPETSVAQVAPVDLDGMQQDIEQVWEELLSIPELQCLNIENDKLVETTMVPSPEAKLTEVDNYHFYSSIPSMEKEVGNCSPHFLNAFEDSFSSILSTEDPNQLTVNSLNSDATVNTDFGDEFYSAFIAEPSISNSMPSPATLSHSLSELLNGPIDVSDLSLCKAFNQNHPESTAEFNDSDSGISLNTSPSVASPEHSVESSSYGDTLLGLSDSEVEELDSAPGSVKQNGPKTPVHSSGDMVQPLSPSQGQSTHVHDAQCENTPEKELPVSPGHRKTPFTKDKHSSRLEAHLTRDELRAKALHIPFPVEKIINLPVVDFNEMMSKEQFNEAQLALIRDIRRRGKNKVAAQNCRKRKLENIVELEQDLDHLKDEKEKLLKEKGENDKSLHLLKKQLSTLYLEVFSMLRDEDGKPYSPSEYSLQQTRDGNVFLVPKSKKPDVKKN
The experiment in a line: co-IP; endogenous proteins in LN229 and U251 cell lysates (IP buffer with protease inhibitors); primary antibody at 4°C for 12 hours, protein A/G beads for 2 hours, four washes with ice-cold PBS, Western blot.

Amino acid sequences for entries named in this document (tags omitted). A change or cut given only in a name is not applied to a line headed by its entry.
UniProt Q99988: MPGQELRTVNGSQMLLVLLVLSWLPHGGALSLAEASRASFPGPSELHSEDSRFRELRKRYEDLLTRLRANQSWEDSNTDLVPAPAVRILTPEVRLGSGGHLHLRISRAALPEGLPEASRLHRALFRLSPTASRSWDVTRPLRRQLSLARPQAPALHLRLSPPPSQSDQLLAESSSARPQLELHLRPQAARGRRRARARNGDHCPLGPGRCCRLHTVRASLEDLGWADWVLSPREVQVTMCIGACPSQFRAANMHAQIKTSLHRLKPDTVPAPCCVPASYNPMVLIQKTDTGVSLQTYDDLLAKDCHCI

These are yes or no findings as the source states them, for the method shown. Binding seen in cells or lysates may run through a third protein. A result given as binding can be weak or reduced; the word gives no strength.

Turning to “growth differentiation factor 15 (GDF15) (from UniProt Q99988)”, the binding entry was “binds”.

These data come from article PMC12631175.
